Assay results: article PMC11772845
Results are given in words; binding and its absence hold for the method and conditions named. Binding seen in cells or lysates may run through a third protein. A yes stands for co-enrichment or nearness to the bait. Other partners may have been found.

Chains of the proteins cited; added tags and fusions are not shown. Lines headed by an entry give the natural chain unless they say otherwise; changes in a name come on top.
UniProt P40098: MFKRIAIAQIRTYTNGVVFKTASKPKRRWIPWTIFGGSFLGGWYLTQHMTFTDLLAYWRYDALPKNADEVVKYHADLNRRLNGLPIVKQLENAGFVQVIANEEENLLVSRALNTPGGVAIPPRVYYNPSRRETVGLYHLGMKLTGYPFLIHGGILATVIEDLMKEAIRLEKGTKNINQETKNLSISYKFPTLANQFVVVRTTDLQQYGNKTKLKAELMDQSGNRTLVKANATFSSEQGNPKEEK
UniProt P38172: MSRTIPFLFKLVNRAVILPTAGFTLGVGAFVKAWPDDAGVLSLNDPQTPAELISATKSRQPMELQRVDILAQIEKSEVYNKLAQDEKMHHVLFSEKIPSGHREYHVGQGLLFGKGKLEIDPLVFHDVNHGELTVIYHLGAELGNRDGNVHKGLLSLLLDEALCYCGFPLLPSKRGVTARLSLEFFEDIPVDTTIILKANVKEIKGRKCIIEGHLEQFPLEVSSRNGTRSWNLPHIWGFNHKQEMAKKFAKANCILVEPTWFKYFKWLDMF

How the values were obtained:
Cor1TAP (S. cerevisiae) = target: T1, Cor1TAP (S. cerevisiae) (UniProt P07256); test: affinity purification with mass spectrometry; SILAC: tagged strain (light) against wild type (heavy); IgG affinity purification from digitonin-solubilised mitochondria, trypsin digest, LC/MS (LTQ-Orbitrap XL), three replicates
T1 sequence: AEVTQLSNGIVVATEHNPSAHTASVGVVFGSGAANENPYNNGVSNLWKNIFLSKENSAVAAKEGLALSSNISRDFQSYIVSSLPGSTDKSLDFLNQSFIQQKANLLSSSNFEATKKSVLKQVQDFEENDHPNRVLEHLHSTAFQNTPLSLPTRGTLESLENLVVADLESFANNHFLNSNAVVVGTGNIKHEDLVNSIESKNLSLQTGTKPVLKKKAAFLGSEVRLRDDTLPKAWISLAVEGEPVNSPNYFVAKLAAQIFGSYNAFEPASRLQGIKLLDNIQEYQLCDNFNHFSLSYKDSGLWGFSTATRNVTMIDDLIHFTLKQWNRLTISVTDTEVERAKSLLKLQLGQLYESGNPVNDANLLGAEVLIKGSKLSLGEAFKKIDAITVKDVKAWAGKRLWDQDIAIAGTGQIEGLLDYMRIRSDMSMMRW

[1] = target: Mar26_(ProtA) (S. cerevisiae) (UniProt P40098); test: as above

Row | binding (Cor1TAP (S. cerevisiae)) | binding [1] | Substance
1 | binds |  | Mar26 (from UniProt P40098)
2 | binds | binds | Mrx3 (from UniProt P38172)
